Results as given in PMC4819936.
Results are given in words; binding and its absence hold for the method and conditions named. In cells and extracts the contact can be indirect. These calls come from enrichment with a bait or labelling near it, and not all partners need be listed.

Sequences of proteins named here, by UniProt entry; tags and fusion partners are left off. A change or cut given only in a name is not applied to a line headed by its entry.
UniProt O73766: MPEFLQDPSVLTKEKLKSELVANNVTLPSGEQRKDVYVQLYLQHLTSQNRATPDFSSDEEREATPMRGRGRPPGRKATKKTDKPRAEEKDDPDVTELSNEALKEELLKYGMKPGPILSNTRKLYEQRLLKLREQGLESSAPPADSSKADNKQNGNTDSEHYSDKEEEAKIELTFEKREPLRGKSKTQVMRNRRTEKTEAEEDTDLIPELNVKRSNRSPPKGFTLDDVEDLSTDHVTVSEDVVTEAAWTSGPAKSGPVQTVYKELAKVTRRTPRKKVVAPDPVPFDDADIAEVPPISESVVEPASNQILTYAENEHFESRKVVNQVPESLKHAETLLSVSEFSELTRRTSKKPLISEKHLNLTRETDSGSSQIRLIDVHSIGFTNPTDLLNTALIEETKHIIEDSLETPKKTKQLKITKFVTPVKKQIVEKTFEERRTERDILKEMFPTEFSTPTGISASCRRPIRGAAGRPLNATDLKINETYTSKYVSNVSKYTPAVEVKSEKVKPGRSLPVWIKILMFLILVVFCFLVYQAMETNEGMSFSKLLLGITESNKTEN
UniProt P11048: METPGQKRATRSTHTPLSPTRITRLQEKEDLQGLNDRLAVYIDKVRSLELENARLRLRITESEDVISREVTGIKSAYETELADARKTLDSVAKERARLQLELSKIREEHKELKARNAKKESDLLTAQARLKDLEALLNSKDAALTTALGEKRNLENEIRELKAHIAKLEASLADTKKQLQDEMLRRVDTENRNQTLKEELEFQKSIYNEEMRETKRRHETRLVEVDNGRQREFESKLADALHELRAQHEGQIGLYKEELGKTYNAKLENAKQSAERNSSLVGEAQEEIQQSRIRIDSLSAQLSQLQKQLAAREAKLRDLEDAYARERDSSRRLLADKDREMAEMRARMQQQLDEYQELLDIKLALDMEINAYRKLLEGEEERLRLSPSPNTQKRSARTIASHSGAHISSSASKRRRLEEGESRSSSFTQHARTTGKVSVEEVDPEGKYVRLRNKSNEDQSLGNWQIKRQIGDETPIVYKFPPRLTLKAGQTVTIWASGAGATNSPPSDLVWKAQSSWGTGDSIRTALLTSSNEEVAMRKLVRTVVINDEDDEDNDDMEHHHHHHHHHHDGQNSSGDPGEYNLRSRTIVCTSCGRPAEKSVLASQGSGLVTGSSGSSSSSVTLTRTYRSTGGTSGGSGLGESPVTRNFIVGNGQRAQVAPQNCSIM

Target: Xenopus LAP2β protein (lamina-associated polypeptide 2, isoform β) (Xenopus laevis (endogenous in XTC cells)) (UniProt O73766)
Experiment: affinity purification with mass spectrometry; immunoprecipitation with anti-XLAP2 Igs from unsynchronized XTC cell extracts under native conditions, tandem MS of the co-precipitated proteins; three procedures: 0.3 M NaCl throughout; 0.6 M NaCl throughout; 0.6 M NaCl in extraction and 0.3 M NaCl in the rest; 9 x 10^6 cells each; control Igs

lamin A protein (from UniProt P11048 1-665)
binding: binds
